The source of these data is PMC2944796.

No constants are given. Whether binding was seen depends on the method and setting. In cells and extracts the contact can be indirect. Binding can be weak; no strength is given. Where a sequence is shown, tags or fusion partners need not be part of it.

The target of this experiment is T1, Flag-DIM-5 (N. crassa) (UniProt Q8X225).
T1 sequence: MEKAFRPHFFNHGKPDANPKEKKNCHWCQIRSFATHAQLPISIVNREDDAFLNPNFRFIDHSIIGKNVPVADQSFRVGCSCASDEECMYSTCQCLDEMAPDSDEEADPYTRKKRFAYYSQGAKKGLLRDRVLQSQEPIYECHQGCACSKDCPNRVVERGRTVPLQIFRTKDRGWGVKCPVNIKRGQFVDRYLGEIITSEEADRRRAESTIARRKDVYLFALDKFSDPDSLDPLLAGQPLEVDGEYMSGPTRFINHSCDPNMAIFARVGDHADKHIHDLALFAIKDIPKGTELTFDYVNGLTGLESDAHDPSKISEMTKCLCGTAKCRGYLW
In words: co-IP; Flag antibody immunoprecipitation from N. crassa strains coexpressing Flag-DIM-5 and Myc-DCAF26 (wild type or mutant).

Consider Myc-DCAF26R976A (N. crassa), for which the binding result is recorded as “binds”.
The entry for Myc-His-DCAF26 (N. crassa) is “binds”.
